Reference: PMC3861177
These are yes or no findings as the source states them, for the method shown. Some binding calls cover weakened binding; strength is not graded here.

Sequences of proteins named here, by UniProt entry; tags and fusion partners are left off. A change or cut given only in a name is not applied to a line headed by its entry.
UniProt O60603: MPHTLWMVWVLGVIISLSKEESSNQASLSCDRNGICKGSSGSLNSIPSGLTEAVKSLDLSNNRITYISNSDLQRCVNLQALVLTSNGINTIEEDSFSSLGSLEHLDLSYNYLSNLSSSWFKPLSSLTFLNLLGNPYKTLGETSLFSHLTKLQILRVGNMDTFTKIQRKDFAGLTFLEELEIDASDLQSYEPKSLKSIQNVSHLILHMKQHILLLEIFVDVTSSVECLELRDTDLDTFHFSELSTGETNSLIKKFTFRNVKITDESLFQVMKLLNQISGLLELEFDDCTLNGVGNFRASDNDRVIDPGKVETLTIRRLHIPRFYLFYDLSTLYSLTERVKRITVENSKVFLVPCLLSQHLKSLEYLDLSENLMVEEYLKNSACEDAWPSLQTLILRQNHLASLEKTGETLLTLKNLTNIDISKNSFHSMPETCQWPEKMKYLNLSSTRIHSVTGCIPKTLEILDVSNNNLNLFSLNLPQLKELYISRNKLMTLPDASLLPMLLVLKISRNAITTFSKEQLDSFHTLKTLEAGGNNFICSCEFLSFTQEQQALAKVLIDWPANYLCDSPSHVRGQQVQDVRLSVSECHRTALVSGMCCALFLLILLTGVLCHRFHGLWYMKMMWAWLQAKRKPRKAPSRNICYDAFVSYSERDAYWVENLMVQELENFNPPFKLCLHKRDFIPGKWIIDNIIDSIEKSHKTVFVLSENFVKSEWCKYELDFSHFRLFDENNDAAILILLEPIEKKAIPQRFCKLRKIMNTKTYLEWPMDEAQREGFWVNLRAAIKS

T1: Pam3-Cys-Ser-Lys4 (Pam3CSK4) conjugated-biotin
T1 sequence (peptide, Pam3 on the Cys (as printed, Pam3-Cys-Ser-Lys4); biotin, position not stated): CSKKKK


How the values were obtained:
[1] = target: T1, Pam3-Cys-Ser-Lys4 (Pam3CSK4) conjugated-biotin; assay: flow cytometry on cells; Pam3CSK4-biotin held on Streptavidin-Agarose beads; HEK-Blue2 cells treated with the beads for 1h, beads isolated and washed 3 times with PBS, bead-associated cells quantified with anti-TLR2 antibody; only the target purified
[2] = target: human TLR2 on HEK-Blue2 cells (human) (UniProt O60603); assay: flow cytometry on cells; cells treated with Pam3CSK4-biotin 100ng/ml on ice; ligand on the cell surface stained with mouse anti-biotin/goat anti-mouse-phycoerythrin; only the binder purified
[3] = target: TLR2 on HEK-293 cells expressing only TLR2 (UniProt O60603); assay: as above

Molecule | binding [1] | binding [2] | binding [3]
human TLR2 on HEK-Blue2 cells (from UniProt O60603 21-784) (receptor) | binds | – | –
CSKKKK (Pam3 on the Cys (as printed: Pam3-Cys-Ser-Lys4); biotin, position not stated) [Pam3-Cys-Ser-Lys4 (Pam3CSK4) conjugated-biotin] | – | binds | binds
